Where two headings read alike, the source gives them in different places. Results are given in words; binding and its absence hold for the method and conditions named. For some assays here: In cells and extracts the contact can be indirect. Some entries that bind do so weakly or less than the wild type. For some assays here: Tags and fused reporters may be left off the sequences shown.
T1: BD-BIN2 (Arabidopsis thaliana) (UniProt Q39011)
T1 sequence: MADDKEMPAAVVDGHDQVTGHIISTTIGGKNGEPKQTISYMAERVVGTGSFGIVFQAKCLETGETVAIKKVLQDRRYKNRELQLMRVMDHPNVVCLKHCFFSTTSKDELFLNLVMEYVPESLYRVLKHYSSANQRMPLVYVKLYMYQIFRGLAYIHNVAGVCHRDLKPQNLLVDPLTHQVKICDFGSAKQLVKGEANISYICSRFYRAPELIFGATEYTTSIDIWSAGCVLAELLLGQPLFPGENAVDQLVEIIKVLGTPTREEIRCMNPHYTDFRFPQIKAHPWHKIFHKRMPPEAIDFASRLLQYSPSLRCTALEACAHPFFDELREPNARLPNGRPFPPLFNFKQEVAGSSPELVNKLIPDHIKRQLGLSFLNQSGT

Amino acid sequences for entries named in this document (tags omitted). A change or cut given only in a name is not applied to a line headed by its entry.
UniProt Q9SK03: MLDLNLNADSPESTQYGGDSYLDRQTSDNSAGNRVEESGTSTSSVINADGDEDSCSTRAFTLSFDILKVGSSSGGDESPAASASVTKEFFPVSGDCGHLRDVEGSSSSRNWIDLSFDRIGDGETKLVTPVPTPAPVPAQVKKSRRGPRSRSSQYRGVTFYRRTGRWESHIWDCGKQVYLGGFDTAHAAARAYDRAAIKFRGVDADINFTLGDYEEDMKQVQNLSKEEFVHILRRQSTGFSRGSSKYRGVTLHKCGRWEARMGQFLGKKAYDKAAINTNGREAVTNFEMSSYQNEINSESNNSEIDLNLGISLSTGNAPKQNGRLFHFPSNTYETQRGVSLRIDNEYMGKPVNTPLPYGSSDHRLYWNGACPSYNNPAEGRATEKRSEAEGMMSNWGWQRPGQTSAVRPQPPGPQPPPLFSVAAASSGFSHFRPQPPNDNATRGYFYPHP
UniProt Q39057: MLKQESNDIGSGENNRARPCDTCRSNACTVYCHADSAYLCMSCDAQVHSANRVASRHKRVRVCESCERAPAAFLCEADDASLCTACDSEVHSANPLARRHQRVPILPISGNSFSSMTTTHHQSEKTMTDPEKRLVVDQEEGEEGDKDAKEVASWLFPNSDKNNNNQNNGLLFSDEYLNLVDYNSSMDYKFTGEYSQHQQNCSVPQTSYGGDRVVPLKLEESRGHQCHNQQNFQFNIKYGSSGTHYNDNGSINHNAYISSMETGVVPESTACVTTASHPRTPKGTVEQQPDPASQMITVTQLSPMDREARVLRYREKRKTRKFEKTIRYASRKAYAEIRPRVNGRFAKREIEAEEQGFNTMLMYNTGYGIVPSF
UniProt Q39026: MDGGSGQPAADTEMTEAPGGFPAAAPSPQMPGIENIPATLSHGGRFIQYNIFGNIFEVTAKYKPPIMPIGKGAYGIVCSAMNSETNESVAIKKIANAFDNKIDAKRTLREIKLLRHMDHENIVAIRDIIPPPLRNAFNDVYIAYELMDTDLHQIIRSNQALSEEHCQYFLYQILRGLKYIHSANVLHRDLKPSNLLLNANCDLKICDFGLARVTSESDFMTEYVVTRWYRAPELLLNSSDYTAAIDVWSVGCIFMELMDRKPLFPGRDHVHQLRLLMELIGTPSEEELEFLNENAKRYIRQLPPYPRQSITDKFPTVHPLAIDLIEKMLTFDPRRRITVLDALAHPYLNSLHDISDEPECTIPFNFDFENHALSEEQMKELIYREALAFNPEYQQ

T2: NF-YC4 (NUCLEAR FACTOR Y subunit), yeast two-hybrid fusion (Arabidopsis thaliana) (UniProt Q9FMV5)
T2 sequence: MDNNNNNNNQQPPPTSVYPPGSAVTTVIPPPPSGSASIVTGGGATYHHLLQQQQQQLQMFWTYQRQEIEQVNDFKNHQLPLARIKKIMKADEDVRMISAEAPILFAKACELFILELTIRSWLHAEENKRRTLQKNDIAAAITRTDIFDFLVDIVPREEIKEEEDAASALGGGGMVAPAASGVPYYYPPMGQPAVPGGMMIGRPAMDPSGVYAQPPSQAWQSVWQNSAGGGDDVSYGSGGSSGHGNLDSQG


Tests used:
[1] = molecular target: T1, BD-BIN2 (Arabidopsis thaliana); experiment: two-hybrid; pGADT7 and pGBKT7 fusions in AH109 yeast; growth on SD-L/W/H, 30°C, 3 to 4 days
[2] = molecular target: T2, NF-YC4 (NUCLEAR FACTOR Y subunit), yeast two-hybrid fusion (Arabidopsis thaliana); experiment: as above
[3] = molecular target: TARGET OF EAT1 (TOE1), yeast two-hybrid fusion (Arabidopsis thaliana) (UniProt Q9SK03); experiment: as above
[4] = molecular target: nLUC-CO (CONSTANS fused with the amino-terminal part of luciferase) (Arabidopsis thaliana) (UniProt Q39057); experiment: split reporter; luciferase complementation imaging (LCI); nLUC and cLUC fusions co-infiltrated into N. benthamiana leaves by Agrobacterium GV3101; 12 h dark and 36 h light; LUC activity imaged
[5] = molecular target: nLUC-CO (CONSTANS fused with the amino-terminal part of luciferase) (Arabidopsis thaliana) (UniProt Q39057); experiment: as above; remark: listed apart in the source

| binding [2] | binding [3] | binding [4] | Molecule | further results |
| --- | --- | --- | --- | --- |
| – | – | – | AD-CO (from UniProt Q39057 1-373) | binding [1]: binds |
| binds | binds | – | CO (yeast two-hybrid fusion tested with TOE1 and NF-YC4) (from UniProt Q39057 1-373) | – |
| binds | binds | – | CO^T280A (yeast two-hybrid fusion tested with TOE1 and NF-YC4) (from UniProt Q39057 1-373) | – |
| – | – | no binding | cLUC-MPK6 (from UniProt Q39026 1-395) (enzyme) | – |
| – | – | binds | nLUC-CO (CONSTANS fused with the amino-terminal part of luciferase) (from UniProt Q39057 1-373) | – |
| – | – | – | cLUC-SK12 (enzyme, UniProt P43289 1-409) MASVGIEPSAAVRESTGNVTDADRLPEEMKDMKIQDDKEMEATIVNGNVTETGHIIVTTIGGRNGQPKQTISYMAERVVGHGSFGVVFQAKCLETGETVAIKKVLQDRRYKNRELQTMRLLDHPNVVSLKHCFFSTTEKDELYLNLVLEYVPETVHRVIKHYNKLNQRMPLVYVKLYTYQIFRSLSYIHRCIGVCHRDIKPQNLLVNPHTHQVKLCDFGSAKVLVKGEPNISYICSRYYRAPELIFGATEYTTAIDVWSAGCVLAELLLGQPLFPGESGVDQLVEIIKVLGTPTREEIKCMNPNYTEFKFPQIKAHPWHKIFHKRMPPEAVDLVSRLLQYSPNLRCAALDSLVHPFFDELRDPNARLPNGRFLPPLFNFKPHELKGVPVEMVAKLVPEHARKQCPWLSL | binding [5]: binds |

— paper PMC9923014, “BIN2 phosphorylates the Thr280 of CO to restrict its function in promoting Arabidopsis flowering” (Frontiers in Plant Science, 2023)
